Source: article PMC12559739

How the values were obtained:
HA-tagged CUL4A = HA-tagged CUL4A (UniProt Q13619); assay: affinity purification with mass spectrometry; tandem: HEK293T co-transfected with StrepII-FLAG-DCAF12 and HA-CUL4A, 48 h; Strep-TactinXT purification, then immunoprecipitation of HA-CUL4A; LC-MS/MS; compared with CRL4A-DCAF4 or CRL1-FBXL6 controls
[1] = target: StrepII-FLAG-tagged DCAF12 (human) (UniProt Q5T6F0); assay: affinity purification with mass spectrometry; HEK293T transfected with StrepII-FLAG-DCAF12 or empty vector, 48 h, then DMSO or MG132 for 6 h; Strep-TactinXT, elution with desthiobiotin; LC-MS/MS

Molecule: MCM2 (from UniProt P49736 1-904)
binding [1]: binds

B1: MCM3 (protein, UniProt P25205 1-808)
chain: MAGTVVLDDVELREAQRDYLDFLDDEEDQGIYQSKVRELISDNQYRLIVNVNDLRRKNEKRANRLLNNAFEELVAFQRALKDFVASIDATYAKQYEEFYVGLEGSFGSKHVSPRTLTSCFLSCVVCVEGIVTKCSLVRPKVVRSVHYCPATKKTIERRYSDLTTLVAFPSSSVYPTKDEENNPLETEYGLSVYKDHQTITIQEMPEKAPAGQLPRSVDVILDDDLVDKAKPGDRVQVVGTYRCLPGKKGGYTSGTFRTVLIACNVKQMSKDAQPSFSAEDIAKIKKFSKTRSKDIFDQLAKSLAPSIHGHDYVKKAILCLLLGGVERDLENGSHIRGDINILLIGDPSVAKSQLLRYVLCTAPRAIPTTGRGSSGVGLTAAVTTDQETGERRLEAGAMVLADRGVVCIDEFDKMSDMDRTAIHEVMEQGRVTIAKAGIHARLNARCSVLAAANPVYGRYDQYKTPMENIGLQDSLLSRFDLLFIMLDQMDPEQDREISDHVLRMHRYRAPGEQDGDAMPLGSAVDILATDDPNFSQEDQQDTQIYEKHDNLLHGTKKKKEKMVSAAFMKKYIHVAKIIKPVLTQESATYIAEEYSRLRSQDSMSSDTARTSPVTARTLETLIRLATAHAKARMSKTVDLQDAEEAVELVQYAYFKKVLEKEKKRKKRSEDESETEDEEEKSQEDQEQKRKRRKTRQPDAKDGDSYDPYDFSDTEEEMPQVHTPKTADSQETKESQKVELSESRLKAFKVALLDVFREAHAQSIGMNRLTESINRDSEEPFSSVEIQAALSKMQDDNQVMVSEGIIFLI
binding [1]: binds

The next lines start with the values.

binding (HA-tagged CUL4A): binds
Molecule: StrepII-FLAG-tagged DCAF12 (from UniProt Q5T6F0 1-453)

binding [1]: binds
B2: MCM5 (protein, UniProt P33992 1-734)
chain: MSGFDDPGIFYSDSFGGDAQADEGQARKSQLQRRFKEFLRQYRVGTDRTGFTFKYRDELKRHYNLGEYWIEVEMEDLASFDEDLADYLYKQPAEHLQLLEEAAKEVADEVTRPRPSGEEVLQDIQVMLKSDASPSSIRSLKSDMMSHLVKIPGIIIAASAVRAKATRISIQCRSCRNTLTNIAMRPGLEGYALPRKCNTDQAGRPKCPLDPYFIMPDKCKCVDFQTLKLQELPDAVPHGEMPRHMQLYCDRYLCDKVVPGNRVTIMGIYSIKKFGLTTSRGRDRVGVGIRSSYIRVLGIQVDTDGSGRSFAGAVSPQEEEEFRRLAALPNVYEVISKSIAPSIFGGTDMKKAIACLLFGGSRKRLPDGLTRRGDINLLMLGDPGTAKSQLLKFVEKCSPIGVYTSGKGSSAAGLTASVMRDPSSRNFIMEGGAMVLADGGVVCIDEFDKMREDDRVAIHEAMEQQTISIAKAGITTTLNSRCSVLAAANSVFGRWDETKGEDNIDFMPTILSRFDMIFIVKDEHNEERDVMLAKHVITLHVSALTQTQAVEGEIDLAKLKKFIAYCRVKCGPRLSAEAAEKLKNRYIIMRSGARQHERDSDRRSSIPITVRQLEAIVRIAEALSKMKLQPFATEADVEEALRLFQVSTLDAALSGTLSGVEGFTSQEDQEMLSRIEKQLKRRFAIGSQVSEHSIIKDFTKQKYPEHAIHKVLQLMLRRGEIQHRMQRKVLYRLK

binding [1]: binds
B3: MCM6 (protein, UniProt Q14566 1-821)
chain: MDLAAAAEPGAGSQHLEVRDEVAEKCQKLFLDFLEEFQSSDGEIKYLQLAEELIRPERNTLVVSFVDLEQFNQQLSTTIQEEFYRVYPYLCRALKTFVKDRKEIPLAKDFYVAFQDLPTRHKIRELTSSRIGLLTRISGQVVRTHPVHPELVSGTFLCLDCQTVIRDVEQQFKYTQPNICRNPVCANRRRFLLDTNKSRFVDFQKVRIQETQAELPRGSIPRSLEVILRAEAVESAQAGDKCDFTGTLIVVPDVSKLSTPGARAETNSRVSGVDGYETEGIRGLRALGVRDLSYRLVFLACCVAPTNPRFGGKELRDEEQTAESIKNQMTVKEWEKVFEMSQDKNLYHNLCTSLFPTIHGNDEVKRGVLLMLFGGVPKTTGEGTSLRGDINVCIVGDPSTAKSQFLKHVEEFSPRAVYTSGKASSAAGLTAAVVRDEESHEFVIEAGALMLADNGVCCIDEFDKMDVRDQVAIHEAMEQQTISITKAGVKATLNARTSILAAANPISGHYDRSKSLKQNINLSAPIMSRFDLFFILVDECNEVTDYAIARRIVDLHSRIEESIDRVYSLDDIRRYLLFARQFKPKISKESEDFIVEQYKHLRQRDGSGVTKSSWRITVRQLESMIRLSEAMARMHCCDEVQPKHVKEAFRLLNKSIIRVETPDVNLDQEEEIQMEVDEGAGGINGHADSPAPVNGINGYNEDINQESAPKASLRLGFSEYCRISNLIVLHLRKVEEEEDESALKRSELVNWYLKEIESEIDSEEELINKKRIIEKVIHRLTHYDHVLIELTQAGLKGSTEGSESYEEDPYLVVNPNYLLED

No constants are given. Whether binding was seen depends on the method and setting. In cells and extracts the contact can be indirect. Here binding means that the protein was enriched with, or labelled near, the bait; the list need not be complete. Each block holds one molecule with its values, some of them ahead of it.
